Results published in PubChem BioAssay AID485353 (National Center for Advancing Translational Sciences (NCATS), 2010).
The whole screen tested about 330,000 compounds, of which about 610 (0.18%) were called active. Inconclusive means that the source gave no clear call. Such entries were picked first, then a sample of the others. Calls follow the shape of the full dose curve. A potency beside an inconclusive call is a rough fit, not a confirmed value.

Test: qHTS of Yeast-based Assay for SARS-CoV PLP; also: nearly all actives have a fitted effect of over 55% in size; as to activity, positive = growth rescue: 0% is about no effect
Conditions: S. cerevisiae expressing SARS-CoV PLpro; Potency: growth rescue; activity, positive = growth rescue: at 32.9 µM (top of the series)
Potency is read from the fitted curve at half-maximal effect.

SMILES | activity, positive = growth rescue | Potency
O=C(Nc1nc(-c2cccnc2)cs1)c1ccccc1[N+](=O)[O-] | inactive: 2.75% | 
CCN(CC(=O)Nc1ccccc1OC)C(=O)c1cc(S(=O)(=O)N2CCCCCC2)ccc1OC | inactive: 6.54% | 
COc1ccc(-n2c(SCC(=O)c3c(N)n(C)c(=O)n(C)c3=O)nc3ccccc32)cc1 |  | inconclusive: 2.24 µM [activator, single point]
O=C(NC(=S)N1CCN(c2ccc([N+](=O)[O-])cc2Cl)CC1)c1ccco1 |  | inconclusive: 2.51 µM [activator, single point]
O=C(CN1CCN(C(=O)c2ccco2)CC1)Nc1ccccc1-c1ccccc1 | inactive: -0.0973% | 
CCOc1cc(N2CCOCC2)c(OCC)cc1NC(=O)c1ccc(OCc2c(C)noc2C)c(OC)c1 |  | inconclusive: 1 µM [activator, full curve, poor fit]
Cc1ccc(-c2cc(N)n[nH]2)cc1 |  | inconclusive: 17.8 µM [activator, single point]
CCC(=O)NC(c1ccc(C)cc1)c1cc([N+](=O)[O-])c2cccnc2c1O (centres undefined) |  | active: 3.16 µM
O=C1Nc2ccccc2S/C1=C\C(=O)N1CCCC1 | inactive: 1.2% | 
CN1C(=O)SC(Nc2cccc3ccccc23)C1=O (centres undefined) |  | active: 12.6 µM
COc1ccc(NC(=O)CNC(=O)C2CCCCC2)cc1 | inactive: -2.79% | 
CC(C)N1CCc2c(sc(NC(=O)c3ccc(S(=O)(=O)N4CCc5ccccc54)cc3)c2C(N)=O)C1 | inactive: 0.254% | 
CCc1nc(C)c(-c2ccccc2)c(=O)[nH]1 |  | inconclusive: 20 µM [activator, single point]
CCc1nnc(NC(=O)CSc2ccc(Cl)cc2)s1 |  | inconclusive: 1 µM [activator, full curve, poor fit]
CCOC(=O)c1nnn(-c2nonc2NC(C)=O)c1C |  | inconclusive: 20 µM [activator, single point]
O=C(NCCc1ccccc1)c1ccc(CS(=O)(=O)Cc2ccc(F)cc2)o1 |  | inconclusive: 3.98 µM [activator, single point]
Cc1ccc(CS(=O)Cc2ccc(C(=O)NC3CCC(C)CC3)o2)cc1 (centres undefined) |  | inconclusive: 20 µM [activator, single point]
COc1cc(/C=C2\C(=N)N3N=C(S(C)(=O)=O)SC3=NC2=O)ccc1OS(=O)(=O)c1ccc(C)cc1 |  | inconclusive: 4.47 µM [activator, single point]
CN(Cc1nccn1C)C(=O)CC1C(=O)NCCN1Cc1ccc(F)cc1Cl (centres undefined) |  | inconclusive: 3.98 µM [activator, single point]
Cc1ccc(C)c(CSc2nnc(-c3cccnc3)n2N)c1 |  | inconclusive: 20 µM [activator, single point]
CCOC(=O)Nc1ccc(S(=O)(=O)Nn2cnnc2)cc1 |  | active: 22.4 µM
Cc1ccc(C)c(SCC(=O)NCC(c2ccco2)N2CCCCC2)c1 (centres undefined) |  | inconclusive: 20 µM [activator, partial curve]
Cc1cc(C)nc(-n2ncc3c2CC(c2ccccc2)CC3=O)n1 (centres undefined) |  | inconclusive: 12.6 µM [activator, partial curve]
COC(=O)c1ccc(NC(=O)Cn2nnc3ccccc32)cc1 |  | inconclusive: 3.98 µM [activator, single point]
COc1cc2c(cc1NC(=O)COC(=O)/C=C/c1ccccc1)oc1ccccc12 |  | inconclusive: 2.82 µM [activator, partial curve]

SMILES | activity, positive = growth rescue | Potency
COc1cccc(C2=NOC(C(=O)NCCN3CCOCC3)C2)c1 (centres undefined) | inactive: -2.2% | 
CC(=O)Nc1ccc(-c2cc(N)n(-c3ccccc3)n2)cc1 | inactive: -1.8% | 
O=C(CC1COc2ccccc2O1)NCc1ccccc1 (centres undefined) | inactive: -6.02% | 
CCN(C(=O)C(C)N1C(=O)/C(=C/c2cccs2)SC1=S)C1CCS(=O)(=O)C1 (centres undefined) |  | inconclusive: 17.8 µM [activator, single point]
CC(C)CN1CN(Cc2ccccc2)CNC1=S |  | active: 12.6 µM
COc1ccc(C2CCCN2C(=O)Nc2ccc(Cl)cc2)cc1OC (centres undefined) | inactive: -4.95% | 
CCCc1cc(C(=O)Nc2nccs2)cs1 | inactive: -23.8% | 
O=C(c1ccco1)N1CCN(C(=O)C2CC(=O)N(c3ccccc3)C2)CC1 (centres undefined) | inactive: 0.532% | 
COc1ccc(Cc2nnc(-c3cccc(C)c3)o2)cc1OC |  | inconclusive: 4.47 µM [activator, single point]
CN1OC2C(=O)N(c3ccccc3)C(=O)C2C1c1ccc(F)cc1 (centres undefined) |  | inconclusive: 22.4 µM [activator, single point]
Oc1c(C=Nc2cccc3cccnc23)sc2ccccc12 |  | inconclusive: 11.2 µM [activator, single point]
NS(=O)(=O)c1ccc(S(=O)(=O)N(CCc2ccccc2)Cc2ccccn2)cc1 |  | active: 3.55 µM
COc1ccc(N(CCN2C(=O)c3ccccc3C2=O)C(=O)c2cccc([N+](=O)[O-])c2)cc1 |  | inconclusive: 5.01 µM [activator, partial curve]
O=C(Nc1ccccc1)OC(CN1CCCCC1)C(F)(F)F (centres undefined) |  | inconclusive: 4.47 µM [activator, single point]
Cc1cc(NC(=O)c2cccs2)ccc1NC(=O)Cc1ccccc1 | inactive: 0.0914% | 
CCCOc1ccc(C(O)(CCC)CCN2CCCCC2)cc1 (centres undefined) | inactive: 7.31% | 
O=C(COC(=O)/C=C/c1ccc(OC(F)F)cc1)NCc1cccs1 |  | inconclusive: 3.16 µM [activator, partial curve]
CC(C)=C1C2CCC1C1C(=O)N(NC(=O)c3ccco3)C(=O)C21 (centres undefined) |  | active: 2.82 µM
CC(C)(C)OC(=O)N[C@@H](Cc1ccccc1)C(=O)N1CCC(C(=O)O)CC1 | inactive: -9.44% | 
Cc1cc(Nc2ccc3c(c2)OCCO3)c2cc(Cl)ccc2n1 | inactive: -14.2% | 
COc1ccc(CN2C(=O)c3ccccc3C2=O)cc1C(=O)OCC(=O)NC1CCCCC1 |  | inconclusive: 4.47 µM [activator, single point]
Oc1ccc(NC(=S)Nc2ccccc2)cc1 |  | inconclusive: 0.631 µM [activator, full curve, poor fit]
CCOC(=O)CNC(=O)c1cc(-c2ccccn2)nc2c(C)c(Cl)ccc12 | inactive: -0.637% | 
COc1cccc(Nc2nnc(SCc3cc([N+](=O)[O-])cc4c3OCOC4)s2)c1 |  | inconclusive: 2.82 µM [activator, single point]

Copied from the results shown for reference:
SMILES | activity, positive = growth rescue | Potency
COc1ccc(C2CCCN2C(=O)Nc2ccc(Cl)cc2)cc1OC (centres undefined) | inactive: -4.95% | 
CCCc1cc(C(=O)Nc2nccs2)cs1 | inactive: -23.8% | 
O=C(c1ccco1)N1CCN(C(=O)C2CC(=O)N(c3ccccc3)C2)CC1 (centres undefined) | inactive: 0.532% | 
COc1ccc(Cc2nnc(-c3cccc(C)c3)o2)cc1OC |  | inconclusive: 4.47 µM [activator, single point]
CN1OC2C(=O)N(c3ccccc3)C(=O)C2C1c1ccc(F)cc1 (centres undefined) |  | inconclusive: 22.4 µM [activator, single point]
Oc1c(C=Nc2cccc3cccnc23)sc2ccccc12 |  | inconclusive: 11.2 µM [activator, single point]
NS(=O)(=O)c1ccc(S(=O)(=O)N(CCc2ccccc2)Cc2ccccn2)cc1 |  | active: 3.55 µM
COc1ccc(N(CCN2C(=O)c3ccccc3C2=O)C(=O)c2cccc([N+](=O)[O-])c2)cc1 |  | inconclusive: 5.01 µM [activator, partial curve]
O=C(Nc1ccccc1)OC(CN1CCCCC1)C(F)(F)F (centres undefined) |  | inconclusive: 4.47 µM [activator, single point]
Cc1cc(NC(=O)c2cccs2)ccc1NC(=O)Cc1ccccc1 | inactive: 0.0914% | 
CCCOc1ccc(C(O)(CCC)CCN2CCCCC2)cc1 (centres undefined) | inactive: 7.31% | 
O=C(COC(=O)/C=C/c1ccc(OC(F)F)cc1)NCc1cccs1 |  | inconclusive: 3.16 µM [activator, partial curve]
